Measurements published in ChEMBL document CHEMBL1157379, “Transcriptional response of Candida parapsilosis following exposure to farnesol” (2007).
This continues a long series; more values of the same kind are listed elsewhere.

Experiments:
Assay type in all cases: functional
Candida parapsilosis [1] = test: Increase in SPT6 gene expression in Candida parapsilosis CLIB214 at 50 uM after 2 hrs by microarray based transcriptional profiling relative to control
Candida parapsilosis [2] = test: Decrease in PDC2 gene expression in Candida parapsilosis CLIB214 at 50 uM after 2 hrs by microarray based transcriptional profiling relative to control
Candida parapsilosis [3] = test: Increase in CGD gene ortholog accession number orf19.5627 expression in Candida parapsilosis CLIB214 at 50 uM after 2 hrs by microarray based transcriptional profiling relative to control
Candida parapsilosis [4] = test: Decrease in CGD gene ortholog accession number orf19.1158 expression in Candida parapsilosis CLIB214 at 50 uM after 2 hrs by microarray based transcriptional profiling relative to control
Candida parapsilosis [5] = test: Decrease in CGD gene ortholog accession number orf19.2101 expression in Candida parapsilosis CLIB214 at 50 uM after 2 hrs by microarray based transcriptional profiling relative to control
Candida parapsilosis [6] = test: Decrease in ADP1 gene expression in Candida parapsilosis CLIB214 at 50 uM after 2 hrs by microarray based transcriptional profiling relative to control
Candida parapsilosis [7] = test: Decrease in RIB1 gene expression in Candida parapsilosis CLIB214 at 50 uM after 2 hrs by microarray based transcriptional profiling relative to control
Candida parapsilosis [8] = test: Decrease in CGD gene ortholog accession number orf19.6804 expression in Candida parapsilosis CLIB214 at 50 uM after 2 hrs by microarray based transcriptional profiling relative to control
Candida parapsilosis [9] = test: Increase in ALR1 gene expression in Candida parapsilosis CLIB214 at 50 uM after 2 hrs by microarray based transcriptional profiling relative to control
Candida parapsilosis [10] = test: Decrease in CGD gene ortholog accession number orf19.4203 expression in Candida parapsilosis CLIB214 at 50 uM after 2 hrs by microarray based transcriptional profiling relative to control
Candida parapsilosis [11] = test: Decrease in GenBank accession number XP_459779.1 expression in Candida parapsilosis CLIB214 at 50 uM after 2 hrs by microarray based transcriptional profiling relative to control
Candida parapsilosis [12] = test: Decrease in LEU42 gene expression in Candida parapsilosis CLIB214 at 50 uM after 2 hrs by microarray based transcriptional profiling relative to control
Candida parapsilosis [13] = test: Increase in CGD gene ortholog accession number orf19.1890 expression in Candida parapsilosis CLIB214 at 50 uM after 2 hrs by microarray based transcriptional profiling relative to control
Candida parapsilosis [14] = test: Decrease in CGD gene ortholog accession number orf19.6211 expression in Candida parapsilosis CLIB214 at 50 uM after 2 hrs by microarray based transcriptional profiling relative to control
Candida parapsilosis [15] = test: Increase in CGD gene ortholog accession number orf19.6062 expression in Candida parapsilosis CLIB214 at 50 uM after 2 hrs by microarray based transcriptional profiling relative to control
Candida parapsilosis [16] = test: Increase in NCP1 gene expression in Candida parapsilosis CLIB214 at 50 uM after 2 hrs by microarray based transcriptional profiling relative to control
Candida parapsilosis [17] = test: Decrease in CGD gene ortholog accession number orf19.731 expression in Candida parapsilosis CLIB214 at 50 uM after 2 hrs by microarray based transcriptional profiling relative to control
Candida parapsilosis [18] = test: Increase in CGD gene ortholog accession number orf19.5550 expression in Candida parapsilosis CLIB214 at 50 uM after 2 hrs by microarray based transcriptional profiling relative to control
Candida parapsilosis [19] = test: Increase in CGD gene ortholog accession number orf19.308 expression in Candida parapsilosis CLIB214 at 50 uM after 2 hrs by microarray based transcriptional profiling relative to control
Candida parapsilosis [20] = test: Increase in HSP78 gene expression in Candida parapsilosis CLIB214 at 50 uM after 2 hrs by microarray based transcriptional profiling relative to control
Candida parapsilosis [21] = test: Decrease in CGD gene ortholog accession number orf19.4911 expression in Candida parapsilosis CLIB214 at 50 uM after 2 hrs by microarray based transcriptional profiling relative to control
Candida parapsilosis [22] = test: Increase in CGD gene ortholog accession number orf19.1675 expression in Candida parapsilosis CLIB214 at 50 uM after 2 hrs by microarray based transcriptional profiling relative to control
Candida parapsilosis [23] = test: Increase in CGD gene ortholog accession number orf19.2608 expression in Candida parapsilosis CLIB214 at 50 uM after 2 hrs by microarray based transcriptional profiling relative to control
Candida parapsilosis [24] = test: Decrease in TRL1 gene expression in Candida parapsilosis CLIB214 at 50 uM after 2 hrs by microarray based transcriptional profiling relative to control
Candida parapsilosis [25] = test: Increase in CGD gene ortholog accession number orf19.6407 expression in Candida parapsilosis CLIB214 at 50 uM after 2 hrs by microarray based transcriptional profiling relative to control
Candida parapsilosis [26] = test: Decrease in CGD gene ortholog accession number orf19.7149 expression in Candida parapsilosis CLIB214 at 50 uM after 2 hrs by microarray based transcriptional profiling relative to control
Candida parapsilosis [27] = test: Increase in GenBank accession number AAF06350.1 expression in Candida parapsilosis CLIB214 at 50 uM after 2 hrs by microarray based transcriptional profiling relative to control
Candida parapsilosis [28] = test: Decrease in YHB1 gene expression in Candida parapsilosis CLIB214 at 50 uM after 2 hrs by microarray based transcriptional profiling relative to control
Candida parapsilosis [29] = test: Decrease in CGD gene ortholog accession number orf19.413 expression in Candida parapsilosis CLIB214 at 50 uM after 2 hrs by microarray based transcriptional profiling relative to control
Candida parapsilosis [30] = test: Increase in CGD gene ortholog accession number orf19.7032 expression in Candida parapsilosis CLIB214 at 50 uM after 2 hrs by microarray based transcriptional profiling relative to control
Candida parapsilosis [31] = test: Increase in CGD gene ortholog accession number orf19.1372 expression in Candida parapsilosis CLIB214 at 50 uM after 2 hrs by microarray based transcriptional profiling relative to control
Candida parapsilosis [32] = test: Decrease in MSH6 gene expression in Candida parapsilosis CLIB214 at 50 uM after 2 hrs by microarray based transcriptional profiling relative to control
Candida parapsilosis [33] = test: Decrease in CGD gene ortholog accession number orf19.5952 expression in Candida parapsilosis CLIB214 at 50 uM after 2 hrs by microarray based transcriptional profiling relative to control
Candida parapsilosis [34] = test: Decrease in CGD gene ortholog accession number orf19.6046 expression in Candida parapsilosis CLIB214 at 50 uM after 2 hrs by microarray based transcriptional profiling relative to control
Candida parapsilosis [35] = test: Decrease in GAL7 gene expression in Candida parapsilosis CLIB214 at 50 uM after 2 hrs by microarray based transcriptional profiling relative to control
Candida parapsilosis [36] = test: Increase in CGD gene ortholog accession number orf19.2167 expression in Candida parapsilosis CLIB214 at 50 uM after 2 hrs by microarray based transcriptional profiling relative to control

In the case of CC(C)=CCC/C(C)=C/CC/C(C)=C/CO [FARNESOL], the “fold change (FC)” value (Candida parapsilosis [1]) is reported as 2.3, the “fold change (FC)” value (Candida parapsilosis [2]) is reported as 1.8 and the “fold change (FC)” value (Candida parapsilosis [3]) is reported as 1.92. The “fold change (FC)” value (Candida parapsilosis [4]) was 1.65, the “fold change (FC)” value (Candida parapsilosis [5]) was 1.82 and the “fold change (FC)” value (Candida parapsilosis [6]) was 1.71. The “fold change (FC)” value (Candida parapsilosis [7]) was 1.53, the “fold change (FC)” value (Candida parapsilosis [8]) was 1.61 and the “fold change (FC)” value (Candida parapsilosis [9]) was 1.9. The “fold change (FC)” value (Candida parapsilosis [10]) was 1.93, the “fold change (FC)” value (Candida parapsilosis [11]) was 1.6 and the “fold change (FC)” value (Candida parapsilosis [12]) was 1.88. For the same compound, the “fold change (FC)” value (Candida parapsilosis [13]) was 1.71, the “fold change (FC)” value (Candida parapsilosis [14]) was 1.69 and the “fold change (FC)” value (Candida parapsilosis [15]) was 1.68. The “fold change (FC)” value (Candida parapsilosis [16]) was 1.61, the “fold change (FC)” value (Candida parapsilosis [17]) was 2.1 and the “fold change (FC)” value (Candida parapsilosis [18]) was 2. For the same compound, the “fold change (FC)” value (Candida parapsilosis [19]) was 1.51, the “fold change (FC)” value (Candida parapsilosis [20]) was 2.09 and the “fold change (FC)” value (Candida parapsilosis [21]) was 1.97. The “fold change (FC)” value (Candida parapsilosis [22]) was 1.58, the “fold change (FC)” value (Candida parapsilosis [23]) was 2.15 and the “fold change (FC)” value (Candida parapsilosis [24]) was 1.66. For the same compound, the “fold change (FC)” value (Candida parapsilosis [25]) was 1.66, the “fold change (FC)” value (Candida parapsilosis [26]) was 1.62 and the “fold change (FC)” value (Candida parapsilosis [27]) was 2.39. For the same compound, the “fold change (FC)” value (Candida parapsilosis [28]) was 1.83, the “fold change (FC)” value (Candida parapsilosis [29]) was 1.78 and the “fold change (FC)” value (Candida parapsilosis [30]) was 1.52. The “fold change (FC)” value (Candida parapsilosis [31]) was 1.79, the “fold change (FC)” value (Candida parapsilosis [32]) was 2.01 and the “fold change (FC)” value (Candida parapsilosis [33]) was 1.75. The “fold change (FC)” value (Candida parapsilosis [34]) was 1.53, the “fold change (FC)” value (Candida parapsilosis [35]) was 1.55 and the “fold change (FC)” value (Candida parapsilosis [36]) was 1.54.
